Source: article PMC4959778
Results are given in words; binding and its absence hold for the method and conditions named. In cells and extracts the contact can be indirect. Some results given as binding are weak or reduced against the parent protein; the word gives no strength. For part of these data: Sequences can lack the tags named with a protein.

Experiments:
[1] = molecular target: T1, FLAG-TBK1 (UniProt Q9UHD2); test: co-IP; reciprocal: FLAG-TBK1 or FLAG-TBK1 K38A precipitated with anti-FLAG from HEK 293T lysates with ectopic SNRNP200, uninfected and SeV-infected cells; blot with anti-SNRNP200
T1 sequence: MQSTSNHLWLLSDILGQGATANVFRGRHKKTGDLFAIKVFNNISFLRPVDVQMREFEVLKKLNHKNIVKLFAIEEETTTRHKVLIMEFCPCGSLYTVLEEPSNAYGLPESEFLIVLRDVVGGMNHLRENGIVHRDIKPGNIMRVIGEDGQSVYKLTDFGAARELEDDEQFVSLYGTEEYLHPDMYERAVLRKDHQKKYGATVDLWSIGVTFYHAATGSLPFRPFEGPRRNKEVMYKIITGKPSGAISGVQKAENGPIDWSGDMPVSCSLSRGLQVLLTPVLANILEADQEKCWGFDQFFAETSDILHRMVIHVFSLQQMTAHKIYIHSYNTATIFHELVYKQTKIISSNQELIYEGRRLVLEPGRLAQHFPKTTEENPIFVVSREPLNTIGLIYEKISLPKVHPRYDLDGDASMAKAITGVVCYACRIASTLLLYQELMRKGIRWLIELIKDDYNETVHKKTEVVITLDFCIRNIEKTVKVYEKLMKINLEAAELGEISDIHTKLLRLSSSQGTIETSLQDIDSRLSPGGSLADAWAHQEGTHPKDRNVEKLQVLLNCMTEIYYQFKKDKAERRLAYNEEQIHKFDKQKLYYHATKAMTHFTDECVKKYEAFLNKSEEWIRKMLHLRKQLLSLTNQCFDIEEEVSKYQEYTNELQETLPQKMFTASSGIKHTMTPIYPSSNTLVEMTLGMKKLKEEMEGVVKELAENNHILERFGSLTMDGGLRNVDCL

[2] = molecular target: T2, FLAG-TBK1 K38A mutant (UniProt Q9UHD2); test: as above
T2 sequence: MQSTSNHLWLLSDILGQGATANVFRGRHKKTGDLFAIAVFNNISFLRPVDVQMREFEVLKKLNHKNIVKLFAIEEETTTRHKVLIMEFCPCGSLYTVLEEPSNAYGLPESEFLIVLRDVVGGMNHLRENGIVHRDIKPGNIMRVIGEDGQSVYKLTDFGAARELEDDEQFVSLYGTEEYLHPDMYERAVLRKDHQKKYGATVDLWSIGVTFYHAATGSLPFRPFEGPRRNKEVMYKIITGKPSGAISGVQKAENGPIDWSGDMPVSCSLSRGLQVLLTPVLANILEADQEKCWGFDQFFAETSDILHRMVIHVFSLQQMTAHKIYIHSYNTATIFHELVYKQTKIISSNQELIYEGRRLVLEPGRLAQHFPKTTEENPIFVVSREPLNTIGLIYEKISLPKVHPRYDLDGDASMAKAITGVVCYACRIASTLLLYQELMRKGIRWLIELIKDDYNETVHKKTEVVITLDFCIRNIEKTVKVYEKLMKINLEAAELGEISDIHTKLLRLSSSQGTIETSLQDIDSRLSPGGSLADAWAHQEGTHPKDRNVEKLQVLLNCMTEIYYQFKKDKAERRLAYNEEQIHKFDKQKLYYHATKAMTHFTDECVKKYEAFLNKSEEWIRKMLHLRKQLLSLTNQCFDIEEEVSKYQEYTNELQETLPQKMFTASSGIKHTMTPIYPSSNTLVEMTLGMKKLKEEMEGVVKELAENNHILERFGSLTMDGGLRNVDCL

[3] = molecular target: T3, TBK1 (endogenous, A549) (human (endogenous in A549)) (UniProt Q9UHD2); test: co-IP; endogenous proteins, A549 cells untreated or infected with SeV for 16 hours; lysates precipitated with anti-TBK1 or control IgG and protein G sepharose beads; blot for TBK1 and SNRNP200
T3 sequence: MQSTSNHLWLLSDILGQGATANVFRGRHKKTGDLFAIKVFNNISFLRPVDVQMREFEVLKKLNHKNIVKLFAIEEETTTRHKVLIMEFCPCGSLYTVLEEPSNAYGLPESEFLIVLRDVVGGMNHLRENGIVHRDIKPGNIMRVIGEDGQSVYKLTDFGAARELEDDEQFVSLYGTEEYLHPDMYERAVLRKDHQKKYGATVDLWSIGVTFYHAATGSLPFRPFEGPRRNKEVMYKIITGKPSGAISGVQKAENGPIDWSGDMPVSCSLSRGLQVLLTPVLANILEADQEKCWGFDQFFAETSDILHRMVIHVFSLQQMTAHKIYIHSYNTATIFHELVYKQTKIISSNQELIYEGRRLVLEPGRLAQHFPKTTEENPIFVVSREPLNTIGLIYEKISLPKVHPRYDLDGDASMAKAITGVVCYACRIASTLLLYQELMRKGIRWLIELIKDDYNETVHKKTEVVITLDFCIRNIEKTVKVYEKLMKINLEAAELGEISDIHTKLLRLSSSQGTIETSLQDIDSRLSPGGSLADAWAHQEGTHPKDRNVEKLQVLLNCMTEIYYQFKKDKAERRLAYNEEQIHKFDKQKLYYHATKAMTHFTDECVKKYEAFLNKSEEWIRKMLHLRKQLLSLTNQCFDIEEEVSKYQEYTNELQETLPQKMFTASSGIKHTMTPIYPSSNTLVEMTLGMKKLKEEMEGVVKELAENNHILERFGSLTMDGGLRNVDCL

[4] = molecular target: FLAG-SNRNP200 (human) (UniProt O75643); test: co-IP; FLAG-SNRNP200 constructs precipitated with M2 anti-FLAG affinity gel overnight from pre-cleared HEK 293T lysates (10 mM Tris-HCl, 100 mM NaCl, 0.5% Triton X-100, pH 7.6; 1 mg/ml) after 16 hours of SeV infection; five washes, elution with FLAG peptide; blot with anti-TBK1
[5] = molecular target: FLAG-SNRNP200 S1087L mutant (human) (UniProt O75643); test: as above
[6] = molecular target: T4, FLAG-SNRNP200 Sec63-1 domain (human) (UniProt O75643); test: as above
T4 sequence: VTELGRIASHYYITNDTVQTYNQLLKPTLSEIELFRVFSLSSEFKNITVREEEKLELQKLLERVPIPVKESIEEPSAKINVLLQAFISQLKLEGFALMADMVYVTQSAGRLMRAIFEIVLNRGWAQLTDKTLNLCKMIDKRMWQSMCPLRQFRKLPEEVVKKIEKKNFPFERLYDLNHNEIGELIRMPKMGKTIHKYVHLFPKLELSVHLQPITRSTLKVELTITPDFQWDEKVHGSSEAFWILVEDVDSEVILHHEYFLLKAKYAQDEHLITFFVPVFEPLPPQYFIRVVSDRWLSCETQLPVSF

“SNRNP200 (ectopically expressed, no tag named) (from UniProt O75643 1-2136)” was tested, and the binding [1] was “binds” and the binding [2] was “binds”.

In the case of “SNRNP200 (endogenous, A549) (from UniProt O75643 1-2136)”, the binding [3] is reported as “binds”.

B1: TBK1 (endogenous, HEK 293T) (enzyme, UniProt Q9UHD2 1-729)
chain: MQSTSNHLWLLSDILGQGATANVFRGRHKKTGDLFAIKVFNNISFLRPVDVQMREFEVLKKLNHKNIVKLFAIEEETTTRHKVLIMEFCPCGSLYTVLEEPSNAYGLPESEFLIVLRDVVGGMNHLRENGIVHRDIKPGNIMRVIGEDGQSVYKLTDFGAARELEDDEQFVSLYGTEEYLHPDMYERAVLRKDHQKKYGATVDLWSIGVTFYHAATGSLPFRPFEGPRRNKEVMYKIITGKPSGAISGVQKAENGPIDWSGDMPVSCSLSRGLQVLLTPVLANILEADQEKCWGFDQFFAETSDILHRMVIHVFSLQQMTAHKIYIHSYNTATIFHELVYKQTKIISSNQELIYEGRRLVLEPGRLAQHFPKTTEENPIFVVSREPLNTIGLIYEKISLPKVHPRYDLDGDASMAKAITGVVCYACRIASTLLLYQELMRKGIRWLIELIKDDYNETVHKKTEVVITLDFCIRNIEKTVKVYEKLMKINLEAAELGEISDIHTKLLRLSSSQGTIETSLQDIDSRLSPGGSLADAWAHQEGTHPKDRNVEKLQVLLNCMTEIYYQFKKDKAERRLAYNEEQIHKFDKQKLYYHATKAMTHFTDECVKKYEAFLNKSEEWIRKMLHLRKQLLSLTNQCFDIEEEVSKYQEYTNELQETLPQKMFTASSGIKHTMTPIYPSSNTLVEMTLGMKKLKEEMEGVVKELAENNHILERFGSLTMDGGLRNVDCL
For B1, the binding [4] was “binds”, the binding [5] was “binds” and the binding [6] was “binds”.
